Reference: patent publication US20240327456A1 (UNIVERSITAT DE BARCELONA, priority 2021, published 2024)

Assay: general procedure: Fmoc solid-phase peptide synthesis; 2-chlorotrityl chloride resin
Details: whole synthesis, 220 nm, scale 100 μmol

Substance: (S)-N-(3-(((S)-3-amino-1-((S)-4-methyl-1-oxo-1-(pyrrolidin-1-yl) pentan-2-ylamino)-1-oxopropan-2-yl)(methyl)amino)-3-oxopropyl)-3-(biphenyl-4-yl)-2-(2,2-diphenylacetamido)-N-methylpropanamide
- final HPLC purity: 95%
